The source of these data is ChEMBL document CHEMBL3885861, “Open TG-GATES”.

Data set [1] is filed under the species Rattus norvegicus. Nature of the data set: Open TG-GATES - Regimen: Single. The class given is toxicity, organism-based, Sprague-Dawley. The arrangement: regimen Single, gender Male, age 6 weeks. The note with it: in vivo, po, route gavage.
The species entered for data set [2] is Rattus norvegicus. Nature of the data set: Open TG-GATES - Regimen: Daily Repeat. The class given is toxicity, organism-based, Sprague-Dawley. The arrangement: regimen Daily Repeat, gender Male, age 6 weeks. The note with it: in vivo, po, route gavage.
Setting [3] is: 300 mg/kg, 6 h, tissue Blood, dose level Middle.
[4] abbreviates: 300 mg/kg, 24 h, tissue Blood, dose level Middle.
Where [5] appears, read: 300 mg/kg, […], tissue Blood, dose level Middle, time 28 day.

With `O=C(O)c1cn(C2CC2)c2cc(N3CCNCC3)c(F)cc2c1=O` [CIPROFLOXACIN], the Neu in the data set filed under Rattus norvegicus [1] (0 mg/kg, 3 h, tissue Blood, dose level Control) came out at 14.6%; in the data set listed under Rattus norvegicus [1] (setting [4]) it was 14.6%. Besides, the Ca worked out at 11.1 mg/dL in the data set filed under Rattus norvegicus [1] (0 mg/kg, 6 h, tissue Plasma, dose level Control); 11.1 mg/dL in the data set listed under Rattus norvegicus [1] (300 mg/kg, 9 h, tissue Plasma, dose level Middle); 11.1 mg/dL in the data set listed under Rattus norvegicus [1] (1000 mg/kg, 3 h, tissue Plasma, dose level High); 11.1 mg/dL in the data set filed under Rattus norvegicus [2] (0 mg/kg, […], tissue Plasma, dose level Control, time 14 day); 11.1 mg/dL in the data set listed under Rattus norvegicus [2] (100 mg/kg, 72 h, tissue Plasma, dose level Low, time 3 day); 11.1 mg/dL in the data set filed under Rattus norvegicus [2] (300 mg/kg, 72 h, tissue Plasma, dose level Middle, time 3 day). Also, the Ca in the data set filed under Rattus norvegicus [2] (300 mg/kg, […], tissue Plasma, dose level Middle, time 28 day) is given as 11.1 mg/dL; in the data set filed under Rattus norvegicus [2] (1000 mg/kg, […], tissue Plasma, dose level High, time 14 day), 11.1 mg/dL. Moreover, the Ht turned out to be 41.2% in the data set filed under Rattus norvegicus [1] (100 mg/kg, 9 h, tissue Blood, dose level Low); 38.9% in the data set filed under Rattus norvegicus [1] (setting [3]); 38.9% in the data set filed under Rattus norvegicus [1] (setting [4]); 38.9% in the data set filed under Rattus norvegicus [1] (1000 mg/kg, 3 h, tissue Blood, dose level High). The same compound registered a TG in the data set filed under Rattus norvegicus [1] (100 mg/kg, 24 h, tissue Plasma, dose level Low) of 50.8 mg/dL. Moreover, the Lym in the data set listed under Rattus norvegicus [1] (setting [3]) came out at 72.6%. The compound also returned an LIVER in the data set filed under Rattus norvegicus [2] (0 mg/kg, […], tissue Liver, dose level Control, time 28 day) of 14.6 g. Further, in the data set listed under Rattus norvegicus [2] (300 mg/kg, 72 h, tissue Blood, dose level Middle, time 3 day), the MCHC amounted to 33.7%. For the same compound, in the data set listed under Rattus norvegicus [2] (setting [5]), the Hb was determined as 14.6 g/dL. The PT in the data set filed under Rattus norvegicus [2] (setting [5]) turned out to be 11.1 s; in the data set listed under Rattus norvegicus [2] (1000 mg/kg, […], tissue Blood, dose level High, time 28 day) it was 11.1 s. Moreover, the ALT in the data set filed under Rattus norvegicus [2] (1000 mg/kg, […], tissue Plasma, dose level High, time 7 day) came out at 41.2 IU/L.
